Measurements reported in PubChem BioAssay AID1259424 (University of Nebraska Medical Center, 2018).

- Aim: 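Seek colon cancer survival genes behaving like KSR1, using a six-gene signature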 (primary screen)
- System: human HCT116 colon cancer cells
- Knock-down reagent: siRNA pool against human genes, 50 nM
- Read-out: 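Log2 levels of six mRNAs (branched-DNA multiplex), adjusted by two reference genes and the non-targeting median, then scored against the average KSR1 knockdown pattern as Pearson r and euclidean distance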
- Scale: mean correlation with KSR1 profile: higher = expression change more like KSR1 knockdown
This is a random part of about 14,000 reagents. 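Higher correlation or smaller distance means closer resemblance to KSR1 loss; control wells, including KSR1 knockdowns, recur on many plates.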 Not all columns of the deposit are shown. The record does not give: the time to read-out.

GRIK4 (GeneID 2900) — mean correlation with KSR1 profile: -0.439
BAHD1 (GeneID 22893) — mean correlation with KSR1 profile: 0.266
ERAS (GeneID 3266) — mean correlation with KSR1 profile: -0.32
RPP30 (GeneID 10556) — mean correlation with KSR1 profile: 0.677
RPF1 (GeneID 80135) — mean correlation with KSR1 profile: 0.0733
SP4 (GeneID 6671) — mean correlation with KSR1 profile: 0.178
SPG21 (GeneID 51324) — mean correlation with KSR1 profile: -0.378
NUCKS1 (GeneID 64710) — mean correlation with KSR1 profile: 0.0251
HOXD10 (GeneID 3236) — mean correlation with KSR1 profile: 0.532
COQ8B (GeneID 79934) — mean correlation with KSR1 profile: 0.568
RHEB (GeneID 6009) — mean correlation with KSR1 profile: -0.74
CHPT1 (GeneID 56994) — mean correlation with KSR1 profile: -0.036
SLC61A1 (GeneID 84975) — mean correlation with KSR1 profile: 0.74
ARHGAP17 (GeneID 55114) — mean correlation with KSR1 profile: -0.465
RXFP4 (GeneID 339403) — mean correlation with KSR1 profile: 0.575
GOLGA3 (GeneID 2802) — mean correlation with KSR1 profile: -0.242
GPR25 (GeneID 2848) — mean correlation with KSR1 profile: 0.715
EXTL2 (GeneID 2135) — mean correlation with KSR1 profile: -0.139
EVA1B (GeneID 55194) — mean correlation with KSR1 profile: -0.629

Sorted by “mean correlation with KSR1 profile” (highest first): some entries from above.
RXFP4 (GeneID 339403) — mean correlation with KSR1 profile: 0.575
ARHGAP17 (GeneID 55114) — mean correlation with KSR1 profile: -0.465
